Measured values from patent US6878363B2, “Use of small molecule radioligands to discover inhibitors of amyloid-beta peptide production and for diagnostic imaging” (Bristol-Myers Squibb Pharma Company, priority 2000, dated 2005).
At least one structure is not confirmed: it was looked up by name or label, or the drawing left a doubt.

System: Cell membranes (THP-1)
Test: Radioligand Competition Binding Assay (RCB Assay) with Example 7T on THP-1 membranes pre-incubated with Example 11, with or without photolysis

`[3H]CC([3H])CC(C(N)=O)C(CC(C)C)C(=O)NC1CCCCN(Cc2cccc(Oc3ccccc3)c2)C1=O` (centres unmarked) [Example 7T] was tested, and the bmax (THP-1 membranes incubated with Example 11 at approximately 3 times the Kd concentration, after photolysing at 365 nm for 1 hour on ice, RCB Assay using Example 7T) was 238 fmol/mg membranes and the Kd (photolysed vs unphotolysed THP-1 membranes pre-incubated with Example 11) was “not statistically significantly changed”.
